The text below walks through data of PMC9418190, “UDP-glucose, cereblon-dependent proinsulin degrader” (Scientific Reports, 2022).

Amino acid sequences for entries named in this document (tags omitted). Residues count along the entry.
UniProt Q9NYU2, residues 43-1555: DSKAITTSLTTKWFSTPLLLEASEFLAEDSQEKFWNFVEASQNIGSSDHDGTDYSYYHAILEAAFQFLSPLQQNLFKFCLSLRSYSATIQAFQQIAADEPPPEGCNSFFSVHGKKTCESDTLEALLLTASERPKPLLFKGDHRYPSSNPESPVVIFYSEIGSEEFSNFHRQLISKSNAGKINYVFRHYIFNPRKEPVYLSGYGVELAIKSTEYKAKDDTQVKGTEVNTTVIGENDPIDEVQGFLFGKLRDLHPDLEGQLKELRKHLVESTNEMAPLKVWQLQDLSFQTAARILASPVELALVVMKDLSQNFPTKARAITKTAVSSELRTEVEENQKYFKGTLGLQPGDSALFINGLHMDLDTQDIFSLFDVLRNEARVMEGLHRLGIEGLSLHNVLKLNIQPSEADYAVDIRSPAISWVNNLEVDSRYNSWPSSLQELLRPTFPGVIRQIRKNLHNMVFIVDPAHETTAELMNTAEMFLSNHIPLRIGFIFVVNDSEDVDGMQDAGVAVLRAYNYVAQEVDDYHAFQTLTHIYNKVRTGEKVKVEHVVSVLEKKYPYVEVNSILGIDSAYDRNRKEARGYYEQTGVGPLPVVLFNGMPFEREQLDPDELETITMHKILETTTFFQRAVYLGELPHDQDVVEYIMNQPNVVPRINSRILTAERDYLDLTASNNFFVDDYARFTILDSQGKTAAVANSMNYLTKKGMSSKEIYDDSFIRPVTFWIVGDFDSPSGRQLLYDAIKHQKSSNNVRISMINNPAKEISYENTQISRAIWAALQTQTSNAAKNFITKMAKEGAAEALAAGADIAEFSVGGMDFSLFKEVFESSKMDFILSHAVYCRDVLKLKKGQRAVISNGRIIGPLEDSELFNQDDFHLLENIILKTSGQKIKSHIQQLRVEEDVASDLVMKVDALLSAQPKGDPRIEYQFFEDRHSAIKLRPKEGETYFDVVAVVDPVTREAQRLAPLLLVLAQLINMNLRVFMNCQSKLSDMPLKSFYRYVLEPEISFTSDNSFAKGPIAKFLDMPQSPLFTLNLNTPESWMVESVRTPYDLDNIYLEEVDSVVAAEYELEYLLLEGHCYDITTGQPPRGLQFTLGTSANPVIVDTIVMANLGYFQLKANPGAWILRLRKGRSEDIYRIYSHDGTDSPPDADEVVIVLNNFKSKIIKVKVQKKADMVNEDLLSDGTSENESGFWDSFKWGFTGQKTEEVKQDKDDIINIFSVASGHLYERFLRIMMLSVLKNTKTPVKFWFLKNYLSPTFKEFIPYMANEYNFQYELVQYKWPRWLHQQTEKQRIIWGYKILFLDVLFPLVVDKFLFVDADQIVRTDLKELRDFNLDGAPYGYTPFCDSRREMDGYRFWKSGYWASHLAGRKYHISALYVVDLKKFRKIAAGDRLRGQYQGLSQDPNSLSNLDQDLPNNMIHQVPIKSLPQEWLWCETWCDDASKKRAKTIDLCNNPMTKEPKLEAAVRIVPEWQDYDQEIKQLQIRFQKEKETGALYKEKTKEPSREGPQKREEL
UniProt Q6P5E4, residues 43-1551: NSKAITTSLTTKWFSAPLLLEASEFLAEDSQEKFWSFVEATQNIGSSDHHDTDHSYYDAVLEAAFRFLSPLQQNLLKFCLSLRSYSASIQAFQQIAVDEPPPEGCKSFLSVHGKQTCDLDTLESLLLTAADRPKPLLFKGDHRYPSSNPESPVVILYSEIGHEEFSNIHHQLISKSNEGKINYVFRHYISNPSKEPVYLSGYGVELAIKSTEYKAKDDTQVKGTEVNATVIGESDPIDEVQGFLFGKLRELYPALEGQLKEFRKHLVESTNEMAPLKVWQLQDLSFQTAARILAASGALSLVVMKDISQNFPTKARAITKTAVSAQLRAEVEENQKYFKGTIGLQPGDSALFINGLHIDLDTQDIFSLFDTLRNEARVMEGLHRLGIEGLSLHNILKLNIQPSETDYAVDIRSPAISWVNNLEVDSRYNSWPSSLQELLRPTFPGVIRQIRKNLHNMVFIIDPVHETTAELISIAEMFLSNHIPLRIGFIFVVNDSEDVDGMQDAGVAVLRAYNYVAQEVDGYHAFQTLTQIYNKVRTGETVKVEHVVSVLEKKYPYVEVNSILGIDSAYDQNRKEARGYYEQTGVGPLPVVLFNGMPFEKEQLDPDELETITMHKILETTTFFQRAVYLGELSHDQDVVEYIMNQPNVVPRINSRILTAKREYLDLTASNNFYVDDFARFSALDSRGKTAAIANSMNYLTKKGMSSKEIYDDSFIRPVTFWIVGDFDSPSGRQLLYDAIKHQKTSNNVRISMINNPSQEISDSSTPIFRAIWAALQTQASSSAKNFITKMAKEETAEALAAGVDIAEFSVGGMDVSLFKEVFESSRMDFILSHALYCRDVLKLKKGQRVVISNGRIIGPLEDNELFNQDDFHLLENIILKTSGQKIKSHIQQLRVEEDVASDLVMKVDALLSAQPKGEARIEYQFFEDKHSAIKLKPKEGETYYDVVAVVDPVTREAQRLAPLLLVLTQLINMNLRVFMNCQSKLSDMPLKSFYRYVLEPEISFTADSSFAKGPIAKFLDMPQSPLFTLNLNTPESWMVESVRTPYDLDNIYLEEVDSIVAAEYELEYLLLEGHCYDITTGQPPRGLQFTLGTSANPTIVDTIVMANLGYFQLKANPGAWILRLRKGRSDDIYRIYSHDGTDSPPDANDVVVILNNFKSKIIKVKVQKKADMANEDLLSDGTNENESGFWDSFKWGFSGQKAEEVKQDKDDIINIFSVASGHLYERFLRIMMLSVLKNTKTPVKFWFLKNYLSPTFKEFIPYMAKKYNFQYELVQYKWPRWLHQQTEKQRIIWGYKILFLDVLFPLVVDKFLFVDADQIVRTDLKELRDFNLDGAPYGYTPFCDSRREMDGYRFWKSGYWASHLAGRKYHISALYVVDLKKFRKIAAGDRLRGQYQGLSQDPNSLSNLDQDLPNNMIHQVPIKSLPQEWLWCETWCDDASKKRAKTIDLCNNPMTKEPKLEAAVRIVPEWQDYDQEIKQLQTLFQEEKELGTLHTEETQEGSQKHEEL
UniProt Q96SW2: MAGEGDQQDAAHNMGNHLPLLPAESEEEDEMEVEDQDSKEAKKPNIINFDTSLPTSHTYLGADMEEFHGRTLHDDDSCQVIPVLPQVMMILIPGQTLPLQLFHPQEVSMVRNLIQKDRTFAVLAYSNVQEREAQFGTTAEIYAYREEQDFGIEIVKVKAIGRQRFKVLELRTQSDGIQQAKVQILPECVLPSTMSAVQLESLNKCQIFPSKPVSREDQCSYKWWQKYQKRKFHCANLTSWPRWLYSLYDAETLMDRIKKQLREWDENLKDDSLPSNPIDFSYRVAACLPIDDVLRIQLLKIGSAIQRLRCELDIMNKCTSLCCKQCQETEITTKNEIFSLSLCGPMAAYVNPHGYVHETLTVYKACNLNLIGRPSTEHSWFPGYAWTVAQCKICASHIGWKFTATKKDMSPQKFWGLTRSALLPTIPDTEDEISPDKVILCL
UniProt Q9DBY1: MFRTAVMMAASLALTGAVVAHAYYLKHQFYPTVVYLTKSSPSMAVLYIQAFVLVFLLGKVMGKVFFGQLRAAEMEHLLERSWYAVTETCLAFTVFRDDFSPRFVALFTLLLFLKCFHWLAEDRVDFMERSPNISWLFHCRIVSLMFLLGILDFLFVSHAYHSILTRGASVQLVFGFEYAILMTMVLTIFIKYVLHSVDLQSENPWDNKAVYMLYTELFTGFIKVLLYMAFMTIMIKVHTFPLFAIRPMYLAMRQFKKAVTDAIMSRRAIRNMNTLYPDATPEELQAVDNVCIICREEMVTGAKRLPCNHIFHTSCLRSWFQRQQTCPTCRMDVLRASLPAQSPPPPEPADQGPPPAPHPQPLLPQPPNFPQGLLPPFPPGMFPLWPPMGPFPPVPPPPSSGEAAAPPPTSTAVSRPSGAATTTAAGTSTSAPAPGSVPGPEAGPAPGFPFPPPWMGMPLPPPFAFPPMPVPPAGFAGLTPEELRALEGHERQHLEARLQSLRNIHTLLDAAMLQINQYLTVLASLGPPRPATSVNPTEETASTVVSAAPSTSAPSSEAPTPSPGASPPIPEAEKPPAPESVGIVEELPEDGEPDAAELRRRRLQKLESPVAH

These are yes or no findings as the source states them, for the method shown. In cells and extracts the contact can be indirect. Some entries that bind do so weakly or less than the wild type.

One assay concerns the target UGGT1 (in vitro IP-WB) (UniProt Q9NYU2). Put plainly: co-IP; in vitro IP-WB of cereblon and UGGT1, without and with UDP-glucose.
Assay [1] deals with UDP-glucose:glycoprotein glucosyltransferase 1 (UGGT1) (mouse (endogenous in NIT-1)) (UniProt Q6P5E4). Kind of assay: condition: only after administration of 1 mM arginine; co-IP; as a6, after administration of 1 mM arginine: IP of UGGT1, blot for HRD1.
Assay [2] shares this target. Put plainly: co-IP; NIT1 cells, arginine depleted for 30 min, then 1 mM arginine for 0, 1, 3 and 24 h; lysates IPed with proinsulin or UGGT1 and blotted for DDB1 or HRD1.

With “cereblon (in vitro; CRBN^WT) (from UniProt Q96SW2 1-442)”, in the assay with UGGT1 (in vitro IP-WB), the binding entry is listed as “binds”.
With “HMG-CoA reductase degradation 1 (HRD1) (from UniProt Q9DBY1 1-612)”, the binding result in assay [1] was “no binding”; in assay [2], “binds”.
